Reference: article PMC4696240
These are yes or no findings as the source states them, for the method shown. Some entries that bind do so weakly or less than the wild type.

Sequences of proteins named here, by UniProt entry; tags and fusion partners are left off.
UniProt P27318: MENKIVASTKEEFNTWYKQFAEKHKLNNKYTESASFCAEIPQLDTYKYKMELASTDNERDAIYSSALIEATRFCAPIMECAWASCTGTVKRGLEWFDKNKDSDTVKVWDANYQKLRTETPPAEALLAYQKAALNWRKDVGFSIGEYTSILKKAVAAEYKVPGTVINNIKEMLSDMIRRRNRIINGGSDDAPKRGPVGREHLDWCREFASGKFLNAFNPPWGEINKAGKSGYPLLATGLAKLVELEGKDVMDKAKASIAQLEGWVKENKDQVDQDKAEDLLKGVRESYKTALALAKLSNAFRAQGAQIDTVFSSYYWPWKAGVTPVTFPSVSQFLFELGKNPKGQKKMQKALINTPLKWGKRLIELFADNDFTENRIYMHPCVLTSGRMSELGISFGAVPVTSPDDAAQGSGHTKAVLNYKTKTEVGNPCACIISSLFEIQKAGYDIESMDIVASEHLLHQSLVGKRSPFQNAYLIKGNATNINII

Target: Hazara virus nucleocapsid protein (HAZV N), strain JC280 (Hazara virus strain JC280) (UniProt P27318)
Test: crystal structure; HAZV N at 10 mg/mL, crystals from 15 % PEG 10,000, 100 mM sodium citrate pH 5, 100 mM NaCl, 2 % dioxane; P212121, four monomers in the asymmetric unit, 2.7 Å; RNA free; both purified

Substance: Hazara virus nucleocapsid protein (HAZV N), strain JC280 (from UniProt P27318 1-485)
- binding: binds
